Test results as given in the supplement of paper PMC5949888.
Most values lie at the floor of the assay. Slopes are relative: functional sequences can read slightly below zero.

Each substance was assayed on Saccharomyces cerevisiae PS128 hsf1 delta, HSF1(1-493) fusion (assay: growth estimate (transactivation domain function in HSF1 fusion, heat-shock survival) (a.u. (slope of normalised read count over time)); higher = stronger growth at 37°C, i.e. more transactivation activity). Details: library: random library.

Row | Substance | growth estimate
1 | NTIDRHSWRGFSGLNALL | < -0.25
2 | NTIVDAGVLTKKEGVRMICG | < -0.25
3 | NTKLGGSGISTVYGSPTWAE | -0.243
4 | NTQQFLIQFWE | < -0.25
5 | NTQTRRVHGKSGFH | < -0.25
6 | NTRFWWT | < -0.25
7 | NTSAIKTRTHESDPPSKARM | < -0.25
8 | NTSRLVRSPRVGSSANEYPS | < -0.25
9 | NTTQDQGSARV | < -0.25
10 | NTVRFFGACDLSMDFLITLT | < -0.25
11 | NTVSSE | < -0.25
12 | NTYEGGTVVLSLVYRHVVWC | -0.243
13 | NVALTWHLGFILAARGIHYG | < -0.25
14 | NVDRVV | < -0.25
15 | NVFNGVESLKTDLY | < -0.25
16 | NVFRLGRQRRQLRLYKTQ | < -0.25
17 | NVGL | -0.191
18 | NVGLFGSRRRKYSEGI | < -0.25
19 | NVGLRHYMPCYNEWMLCKGG | < -0.25
20 | NVGMFCASYWDGRHWHYEDA | < -0.25
21 | NVIRVALIQSYI | < -0.25
22 | NVKSL | 0.0603
23 | NVKVVRC | < -0.25
24 | NVLAYDQG | < -0.25
25 | NVLG | < -0.25

Row | Substance | growth estimate
26 | NVLQLSLSQSIFSRSGPRCA | < -0.25
27 | NVLTRNALAIFMGLVTCISI | < -0.25
28 | NVMC | < -0.25
29 | NVMRSLTRSGKVRSSRMAVD | < -0.25
30 | NVPAPVSSVRFPACLFETGS | < -0.25
31 | NVRECNR | < -0.25
32 | NVSGCNSFDDSNPRSVRLRV | < -0.25
33 | NVSWSLVKRGRHGQRC | < -0.25
34 | NVTTVRAALSGSALLADGS | < -0.25
35 | NVYVPDAVPSGEDLEAFKLT | -0.246
36 | NWFEPR | < -0.25
37 | NWFRYRIRIMKRKCSLVQMS | < -0.25
38 | NWGLDRDEFYRAERAYWDEL | -0.171
39 | NWGTVVTKEGLAHSQYHMCR | < -0.25
40 | NWGVSPSG | < -0.25
41 | NWGYSGGSCALASREFQTMS | < -0.25
42 | NWRFLTTERAFNSPSRATRD | < -0.25
43 | NWRYRQLLLTLCKTRAPYTL | < -0.25
44 | NWVEDRSASYHRCYQSTFLP | < -0.25
45 | NWVSVLSALGGLLNAAP | < -0.25
46 | NWWSTYSRRQRGPSRVHETP | < -0.25
47 | NYEITFNGHGLAKKLVSVVA | < -0.25
48 | NYTSR | < -0.25
49 | NYWIRVIMADHGSQDRALEH | < -0.25
50 | NYYAE | < -0.25

Row | Substance | growth estimate
51 | PAARNMRRTTPACAGWDPPG | < -0.25
52 | PADS | < -0.25
53 | PAEERSPVNSSDNGERRLAR | < -0.25
54 | PAESAEGNLGGSTWHRAHIG | < -0.25
55 | PAETR | < -0.25
56 | PAEVPDRIASFVAARPGPWA | < -0.25
57 | PAGHNPKARKPLVIIWRCLG | < -0.25
58 | PAGLS | < -0.25
59 | PAGSTVKGPNSSLLIGQTRR | < -0.25
60 | PAIAVK | < -0.25
61 | PAIRDGTIFVCSDIVGIELV | -0.235
62 | PAIRGVQRILGTDSS | < -0.25
63 | PAKKMRVGCAVPHVDGSGWL | < -0.25
64 | PAKSMSSSVPKSFDYAERYC | < -0.25
65 | PALAGPRWVTARASGTSR | < -0.25
66 | PALPAQ | < -0.25
67 | PALVGLPIRL | < -0.25
68 | PAQAHLFAATAHGTT | < -0.25
69 | PARPYVGVTLDQCAV | < -0.25
70 | PASLWGIFHLP | < -0.25
71 | PASNDPDGRRVGHMMERLNA | < -0.25
72 | PASPP | -0.243
73 | PATRWTGAEECILP | < -0.25
74 | PATSQRSGLPQWICADDATS | < -0.25
75 | PATVSLRLNGARLILGIPVG | < -0.25

Row | Substance | growth estimate
76 | PATYGRTQKRLV | < -0.25
77 | PAVAHKEGLDLL | < -0.25
78 | PAVGVTVVGASCLFIRVSRN | < -0.25
79 | PAVRLYSTPPCQICPAPRPS | < -0.25
80 | PAYDGQCSRGLEADEYMPVA | < -0.25
81 | PCAQGALRRYWVHGHLIFPQ | < -0.25
82 | PCDEIRRVACRFQVTYSRHT | < -0.25
83 | PCDYRISHEVMG | < -0.25
84 | PCFSTMNRNAINLSAACGLI | < -0.25
85 | PCGGGFKSSTVRASFRLTCL | < -0.25
86 | PCGLCTAKARSKSPHVGGTR | < -0.25
87 | PCGQVPSSRCTSCSGKQRI | < -0.25
88 | PCGT | < -0.25
89 | PCGVSVTKPVSCKPAGECAL | < -0.25
90 | PCIYRHGSRCVSRRATAPVS | < -0.25
91 | PCKCC | < -0.25
92 | PCLHCERGYVNSS | < -0.25
93 | PCRIACVSQRRGRLRWSVTG | < -0.25
94 | PCRIVVSLSGCRVMLVTEMS | < -0.25
95 | PCRNAYR | < -0.25
96 | PCSILRYINSRRAAGSWRSN | < -0.25
97 | PCVETAGPLVGYP | < -0.25
98 | PCVSVLLFPIVLELLWTNPH | < -0.25
